This note sets out measurements from PubChem BioAssay AID651660 (Broad Institute, 2012).

By UniProt entry, the sequences of proteins in these tests, tags left out. Where a name states a change or a piece, a line headed by the entry shows the natural chain unless it says otherwise.
UniProt P43351: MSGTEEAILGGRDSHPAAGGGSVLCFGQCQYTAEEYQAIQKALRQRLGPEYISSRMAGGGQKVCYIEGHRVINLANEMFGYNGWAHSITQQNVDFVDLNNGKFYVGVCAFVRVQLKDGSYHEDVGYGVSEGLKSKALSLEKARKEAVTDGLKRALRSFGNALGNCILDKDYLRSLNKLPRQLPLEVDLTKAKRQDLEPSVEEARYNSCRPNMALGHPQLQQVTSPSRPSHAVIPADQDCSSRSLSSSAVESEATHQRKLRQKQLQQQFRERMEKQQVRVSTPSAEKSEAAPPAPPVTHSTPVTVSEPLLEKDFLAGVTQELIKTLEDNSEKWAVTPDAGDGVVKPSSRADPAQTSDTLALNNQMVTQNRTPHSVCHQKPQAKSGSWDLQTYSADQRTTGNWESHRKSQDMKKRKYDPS

SMILES strings stand for the structures. Among all 1,900 compounds or so, about 15 (0.8%) were called active.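 Rule for the calls: active = every replicate shows at least 50% inhibition; inconclusive = mean inhibition at least 50% but some replicate below; inactive = the rest.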 This is one part of the list.

One may read the inhibition as the drop in the measured response relative to a control, in per cent.

This test concerns the target DNA repair protein RAD52 homolog (Homo sapiens) (UniProt P43351). The test is described as follows: RAD52 ssDNA annealing inhibitors, primary screen, biochemical, FRET, single point (AID 651660).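 Note: 0% = median of neutral control wells and 100% = median of positive control wells.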 As to conditions: Recombinant RAD52 ssDNA annealing, FRET fluorescence, 30 min; at 18.7 µM; active compounds read high.
Consider `COc1ccccc1C(CC(=O)Nc1ccccc1C)c1ccc(OC(C)C)cc1` (configuration not stated), for which the inhibition is inactive: 6.61%.

For the compound `COc1ccc(CCNC(=S)NC(=O)/C=C/c2ccc(C)cc2)cc1OC`, the inhibition is inactive: -6.55%.

For the compound `O=c1nc2n(c3c1oc1ccccc13)Cc1ccccc1-2`, the inhibition was inactive: 0.916%.

Regarding `COc1cc(C2C(C(=O)c3ccc(C)o3)=C(O)C(=O)N2Cc2cccnc2)ccc1O` (configuration not stated), the inhibition is inactive: -15.4%.

On to `CC(=O)Oc1c2occc2cc2ccc(=O)oc12`, for which the inhibition was inactive: -13.7%.

In the case of `COc1c(C=O)c(CCN(C)C(=O)c2ccc(F)cc2)cc2c1OCO2`, the inhibition is inactive: -6.18%.

As for `CC1(C)Cc2ccccc2-c2nc(-c3ccccc3)oc(=O)c21`, the inhibition is inactive: -17.7%.

Turning to `C=CC1=C(C(=O)O)N2C(=O)C(NC(=O)Cc3ccccc3)C2SC1` (configuration not stated), the inhibition was inactive: -31.6%.

For the compound `CCOC(=O)c1cccc(P(C)(C)=O)c1`, the inhibition is inactive: -0.62%.

As for `CCOCCCNCc1cn(-c2ccc(F)cc2F)nc1-c1ccccc1C`, the inhibition is inactive: 9.75%.

For `C=CCc1ccccc1OCC(O)CNC(C)C` (configuration not stated), the inhibition was inactive: 0.118%.

`O=C(Cc1ccccc1)NNC(=O)Cc1ccccc1`: the inhibition was inactive: 0.18%.

Take `CCCCOc1ccc(CC(=O)NO)cc1`: the inhibition was inactive: 0.125%.

Turning to `CC(=O)OC(C)C[N+](C)(C)C` (configuration not stated), the inhibition is inactive: -9.81%.

With `CC(=O)Nc1ccccc1C(=O)C(=O)Nc1ccccc1`, the inhibition was inactive: 5.62%.

For the compound `Cc1ccccc1OCC(O)CN1CCN(C)CC1` (configuration not stated), the inhibition is inactive: -3.62%.

As for `N/C(=N\OC(=O)/C=C/c1ccccc1)c1ccc(Br)cc1`, the inhibition was inactive: -5.01%.

Take `Nc1ccc2nc(Cc3ccccc3)[nH]c2c1`: the inhibition was inactive: 33.4%.

For the compound `CN(C)CCC(c1ccccc1)c1ccccn1` (configuration not stated), the inhibition was inactive: -0.77%.

For the compound `CC1(C)C(=O)OC(C(=O)c2ccc(Cl)cc2)C(C)(C)C1=O` (configuration not stated), the inhibition was inactive: 0.981%.

On to `O=C(O)CCCCCCNC(=O)c1cncc(O)c1`, for which the inhibition is inactive: 3.04%.

For the compound `CC[C@]1(O)C[C@@H]2CN(CCc3c([nH]c4ccccc34)[C@@](C(=O)OC)(c3cc4c(cc3OC)N(C)[C@H]3[C@@](O)(C(=O)OC)[C@H](OC(C)=O)[C@]5(CC)C=CCN6CC[C@]43[C@@H]65)C2)C1`, the inhibition is inactive: -86.1%.

With `CN(C)CCOC(c1ccccc1)c1ccccc1` (tested in a mixture with another compound), the inhibition was inactive: 0.693%.

Turning to `CCN(CCCc1ccccc1)CCCc1ccccc1`, the inhibition was inactive: -3.65%.

Turning to `COc1ccc(C2c3c(n[nH]c3C)CC(C)(O)C2C(C)=O)cc1OC` (configuration not stated), the inhibition was inactive: -2.26%.

As for `CC12CCC(C(=O)N(CCC#N)CCC#N)(CC1=O)C2(C)C` (configuration not stated), the inhibition was inactive: -4.83%.

On to `Nc1ccc(N=Nc2ccccc2)c(N)n1`, for which the inhibition is inactive: 27.1%.
